Experimental data as given in publication PMC12504463.
Substitutions are numbered along the chain they refer to. In names and notes the source's numbering stands. No constants are given. Whether binding was seen depends on the method and setting. In cells and extracts the contact can be indirect. Some entries that bind do so weakly or less than the wild type.

The chains behind the UniProt entries cited, without tags or fusion partners.
UniProt O14503: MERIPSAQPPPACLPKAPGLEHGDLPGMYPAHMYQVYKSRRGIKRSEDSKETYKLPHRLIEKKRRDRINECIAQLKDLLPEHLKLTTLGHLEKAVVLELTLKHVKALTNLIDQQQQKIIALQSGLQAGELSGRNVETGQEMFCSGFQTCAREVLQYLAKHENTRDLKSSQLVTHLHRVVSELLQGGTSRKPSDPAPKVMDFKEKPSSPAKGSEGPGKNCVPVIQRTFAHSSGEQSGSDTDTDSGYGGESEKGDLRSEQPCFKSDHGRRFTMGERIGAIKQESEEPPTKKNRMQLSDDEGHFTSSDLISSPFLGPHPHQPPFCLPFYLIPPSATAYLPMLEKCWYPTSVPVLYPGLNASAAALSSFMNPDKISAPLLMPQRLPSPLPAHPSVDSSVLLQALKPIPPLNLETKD

B1: inhibitor of differentiation 4 (ID4), wildtype (protein, UniProt P47928 1-161)
chain: MKAVSPVRPSGRKAPSGCGGGELALRCLAEHGHSLGGSAAAAAAAAAARCKAAEAAADEPALCLQCDMNDCYSRLRRLVPTIPPNKKVSKVEILQHVIDYILDLQLALETHPALLRQPPPPAPPHHPAGTCPAAPPRTPLTALNTDPAGAVNKQGDSILCR
B2: ID4 mutant (Q65R) (protein, UniProt P47928 1-161)
chain: B1 chain with Q65R

Molecular target: DEC1 (BHLHE40), basic HLH transcription factor (UniProt O14503)
Assay: co-IP; lysates of HEK-293T cells overexpressing ID4 and DEC1 (or EV); pre-incubated with non-immune IgG 2 h at 4 °C; immunoprecipitated with 2 μg Flag antibody or IgG at 4 °C overnight; A/G PLUS Agarose beads; washed with cold PBS; immunoblotting

Binder | binding
B1 | binds
B2 | no binding
